PubChem BioAssay AID1259254, NCATS | 2017

Assay: 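Finding genes that stop cells copying their DNA twice in one cycle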 (primary screen)
Cells: human HCT116 colorectal cancer cells
Knock-down reagent: single siRNA against human genes
Duration: 3 days
Read-out: 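Imaged Hoechst DNA stain sorts each cell into a cycle phase by DNA amount; per plate, G2 fraction set to 0% for non-targeting and 100% for GMNN siRNA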
Direction: G2 robust z-score: higher = more G2 cells, more excess DNA replication
Call rule: 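An siRNA counts as active if its G2 robust z-score lies at least 5 MADs above the screen median; here such calls match roughly 38% of GMNN control or more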
Here is one part, drawn at random, of about 59,000 reagents. In the full data, about 1,550 (2.6%) are marked active. 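G2 share is only a proxy for re-replication; each gene was hit by three separate siRNAs, and active genes were retested.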 Entries without a mark were called inactive. The numbers tell different reagents against one gene apart. Not all columns of the deposit are shown. Not stated in the record: the amount of reagent.

target gene	reagent no.	G2 robust z-score
HMGA2 (high mobility group AT-hook 2)	1	0.13
HMGA2 (high mobility group AT-hook 2)	2	0.303
HMGA2 (high mobility group AT-hook 2)	3	0.851
TBC1D3P2 (TBC1 domain family member 3 pseudogene 2)	1	-0.498
TBC1D3P2 (TBC1 domain family member 3 pseudogene 2)	2	-0.155
TBC1D3P2 (TBC1 domain family member 3 pseudogene 2)	3	1.89
MAP1LC3A (microtubule associated protein 1 light chain 3 alpha)	1	-0.0303
MAP1LC3A (microtubule associated protein 1 light chain 3 alpha)	2	0.354
MAP1LC3A (microtubule associated protein 1 light chain 3 alpha)	3	-0.954
EID1 (EP300 interacting inhibitor of differentiation 1)	1	0.0118
EID1 (EP300 interacting inhibitor of differentiation 1)	2	1.46
EID1 (EP300 interacting inhibitor of differentiation 1)	3	-0.244
MAST4	1	-0.284
MAST4	2	-0.0368
MAST4	3	-0.574
CPED1 (cadherin like and PC-esterase domain containing 1)	1	-0.66
CPED1 (cadherin like and PC-esterase domain containing 1)	2	1.31
CPED1 (cadherin like and PC-esterase domain containing 1)	3	-0.00509
ENTPD7 (ectonucleoside triphosphate diphosphohydrolase 7)	1	0.773
ENTPD7 (ectonucleoside triphosphate diphosphohydrolase 7)	2	0.187
ENTPD7 (ectonucleoside triphosphate diphosphohydrolase 7)	3	-0.686
VAX2 (ventral anterior homeobox 2)	1	3.75
VAX2 (ventral anterior homeobox 2)	2	-0.24
VAX2 (ventral anterior homeobox 2)	3	0.0753
CYP2D6	1	-0.334
CYP2D6	2	-0.497
CYP2D6	3	0.955
PLGRKT (plasminogen receptor with a C-terminal lysine)	1	-0.708
PLGRKT (plasminogen receptor with a C-terminal lysine)	2	-0.707
PLGRKT (plasminogen receptor with a C-terminal lysine)	3	1.14
ZNF471 (zinc finger protein 471)	1	0.284
ZNF471 (zinc finger protein 471)	2	-0.209
ZNF471 (zinc finger protein 471)	3	-0.507
TCEA1 (transcription elongation factor A1)	1	-0.544
TCEA1 (transcription elongation factor A1)	2	0.615
TCEA1 (transcription elongation factor A1)	3	0.0224
PIP (prolactin induced protein)	1	1.31
PIP (prolactin induced protein)	2	0.609
PIP (prolactin induced protein)	3	0.805
PNMA2 (PNMA family member 2)	1	0.237
PNMA2 (PNMA family member 2)	2	-0.0777
PNMA2 (PNMA family member 2)	3	-0.0711
GOLGA2P5 (GOLGA2 pseudogene 5)	1	1.04
GOLGA2P5 (GOLGA2 pseudogene 5)	2	-0.256
GOLGA2P5 (GOLGA2 pseudogene 5)	3	-0.968
FHAD1 (forkhead associated phosphopeptide binding domain 1)	1	0.957
FHAD1 (forkhead associated phosphopeptide binding domain 1)	2	-1.06
FHAD1 (forkhead associated phosphopeptide binding domain 1)	3	-0.851
ZKSCAN5 (zinc finger with KRAB and SCAN domains 5)	1	-0.0318
ZKSCAN5 (zinc finger with KRAB and SCAN domains 5)	2	-0.732
ZKSCAN5 (zinc finger with KRAB and SCAN domains 5)	3	-0.498
CCDC38 (coiled-coil domain containing 38)	1	1.84
CCDC38 (coiled-coil domain containing 38)	2	0.057
CCDC38 (coiled-coil domain containing 38)	3	-0.114
ACAA2 (acetyl-CoA acyltransferase 2)	1	-1.05
ACAA2 (acetyl-CoA acyltransferase 2)	2	2.25
ACAA2 (acetyl-CoA acyltransferase 2)	3	-0.436
USP43 (ubiquitin specific peptidase 43)	1	1.43
USP43 (ubiquitin specific peptidase 43)	2	0.651
USP43 (ubiquitin specific peptidase 43)	3	4.4
OS9 (OS9 endoplasmic reticulum lectin)	1	2.39
OS9 (OS9 endoplasmic reticulum lectin)	2	0.311
OS9 (OS9 endoplasmic reticulum lectin)	3	0.327
C18orf54 (chromosome 18 open reading frame 54)	1	-0.974
C18orf54 (chromosome 18 open reading frame 54)	2	-0.253
C18orf54 (chromosome 18 open reading frame 54)	3	0.412
REV1 (REV1 DNA directed polymerase)	1	-0.484
REV1 (REV1 DNA directed polymerase)	2	-0.958
REV1 (REV1 DNA directed polymerase)	3	-0.996
PACS1 (phosphofurin acidic cluster sorting protein 1)	1	-1.17
PACS1 (phosphofurin acidic cluster sorting protein 1)	2	0.043
PACS1 (phosphofurin acidic cluster sorting protein 1)	3	0.286
SNAPC5 (small nuclear RNA activating complex polypeptide 5)	1	-1.15
SNAPC5 (small nuclear RNA activating complex polypeptide 5)	2	0.872
SNAPC5 (small nuclear RNA activating complex polypeptide 5)	3	0.491
SERINC3 (serine incorporator 3)	1	-0.348
SERINC3 (serine incorporator 3)	2	-0.927
SERINC3 (serine incorporator 3)	3	0.868
PPIL4 (peptidylprolyl isomerase like 4)	1	0.832
PPIL4 (peptidylprolyl isomerase like 4)	2	0.599
PPIL4 (peptidylprolyl isomerase like 4)	3	-0.613
TCL1B (TCL1 family AKT coactivator B)	1	-0.43
TCL1B (TCL1 family AKT coactivator B)	2	0.642
TCL1B (TCL1 family AKT coactivator B)	3	-0.777
CD33 (CD33 molecule)	1	4.18
CD33 (CD33 molecule)	2	-0.587
CD33 (CD33 molecule)	3	0.949

Part of the list above in another layout.
target gene,reagent no.,G2 robust z-score
ACAA2 (acetyl-CoA acyltransferase 2),3,-0.436
USP43 (ubiquitin specific peptidase 43),1,1.43
USP43 (ubiquitin specific peptidase 43),2,0.651
USP43 (ubiquitin specific peptidase 43),3,4.4
OS9 (OS9 endoplasmic reticulum lectin),1,2.39
OS9 (OS9 endoplasmic reticulum lectin),2,0.311
OS9 (OS9 endoplasmic reticulum lectin),3,0.327
